Consider 14 molecules from PubChem BioAssay AID2685 (National Center for Advancing Translational Sciences (NCATS), 2010).

This experiment in a line: qHTS Assay for Lipid Storage Modulators in Drosophila S3 Cells.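 On cell number change: cells counted by Cell Tracker Red CMTPX staining in the red channel.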 The conditions noted are these: BODIPY lipid droplet fluorescence, 18-24 h; for cell number change: measured here: cell count max response, cells fed with added oleic acid. A digest of the protocol:
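Drosophila S3 cells got compounds at several concentrations plus oleic acid (400 uM solution). Laser-scanning cytometry with 488 nm excitation read lipid droplets at 500-530 nm and cells at 575-640 nm. Percent activity was relative to 20 uM Triacsin C.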
(In general: Quantitative high-throughput screening tests each substance at several concentrations.)

The mark [1] stands for this setting: measured here: lipid fluorescence (Fed channel) AC50, cells fed with added oleic acid.
The mark [2] stands for this setting: measured here: cell number channel AC50, cells fed with added oleic acid.

SMILES strings stand for the structures. The list shows a part of the results. These are further read-outs of the screen, such as a control signal, another cell line or another target. No call is given for them. Most of these compounds were active or inconclusive in the main read-out, so they are no random draw. Words in brackets tell the shape of the fitted curve; partial curves, single points and poor fits give uncertain potencies.

For the molecule `COC(=O)Cn1c(-c2ccc(OC)cc2)c(-c2ccc(OC)cc2)nnc1=O`, the cell number change was -17.9%. Further, the half-maximal activity concentration (AC50) (usually the concentration at which the activity in the assay is half-maximal) under setting [1] was 2590 nM [falling, full curve].

Take `CCC(C)N1CCC2(CC1)N=c1c(c3c4c5c(C)c(O)c3c(O)c1=NC(=O)C(C)=CC=C[C@H](C)[C@H](O)[C@@H](C)[C@@H](O)[C@@H](C)[C@H](OC(C)=O)[C@H](C)[C@@H](OC)C=CO[C@@](C)(O5)C4=O)N2` (stereo not given in full): the cell number change is -33.4%. The concentration at half-maximal activity (AC50) under setting [2] is 1300 nM [falling, full curve]. In addition, the concentration at half-maximal activity (AC50) under setting [1] was 1030 nM [falling, full curve, poor fit].

On to `O=C(NCc1cccc(C(F)(F)F)c1)C1CC(c2ccccc2C(F)(F)F)=NO1` (stereo not given), for which the cell number change was 1.96%. Moreover, under setting [1], the AC50 was 2060 nM [rising, single point].

In the case of `CCc1noc(C)c1C(=O)Nc1nc2c(C)cccc2s1`, the cell number change amounted to 96.5%. Moreover, the AC50 under setting [2] was 11600 nM [rising, partial curve].

Turning to `CCOC(=O)CSCc1cn2cc(Cl)ccc2n1`, the cell number change is -17.5%. Further, the half-maximal activity concentration (AC50) under setting [1] is 20600 nM [falling, partial curve].

`Cc1ccc(NS(=O)(=O)c2ccc(N3C(=O)CCC3=O)cc2)cc1`: the cell number change was -1.05%. The AC50 under setting [1] is 116 nM [falling, full curve, poor fit].

With `Cc1ccc(NC(=O)C/C(N)=N/O)cc1C`, the cell number change was 167%. Also, the AC50 under setting [2] is 23100 nM [rising, single point]. Moreover, the half-maximal activity concentration (AC50) under setting [1] is 29100 nM [rising, partial curve].

Consider `O=C1CN(C(=O)c2cccc(F)c2)C(c2ccc(F)cc2)c2cc(F)ccc2N1` (stereo not given), for which the cell number change was found to be 14.4%.

Consider `COc1ccc(CCNC(=O)CS(=O)(=O)Cc2nc(-c3ccccc3Cl)oc2C)cc1OC`, for which the cell number change stood at 4.9%. Moreover, under setting [1], the half-maximal activity concentration (AC50) was 92 nM [rising, full curve, poor fit].

`COc1cccc(CN2CC(C(=O)NCCSc3nnnn3C)CCC2=O)c1` (stereo not given): the cell number change was found to be 16.8%. For the same molecule, under setting [1], the half-maximal activity concentration (AC50) was 14600 nM [falling, single point].

Take `CC1CCCCN1S(=O)(=O)c1cccc2cccnc12` (stereo not given): the AC50 under setting [1] is 29100 nM [rising, single point].

With `CCCn1cc(S(=O)(=O)c2ccccc2)c(=O)c2cc(OC)c(OC)cc21`, the cell number change was -2.31%. Under setting [2], the AC50 is 2910 nM [falling, partial curve]. In addition, the AC50 under setting [1] was 116 nM [rising, full curve, poor fit].

Take `CN(CC(=O)Nc1ccc(F)cc1)CC(=O)Nc1ccc(F)c(F)c1F`: the cell number change was -3.65%. Further, the AC50 under setting [1] was 5.17 nM [falling, full curve, poor fit].

For `COc1ccc(C(=O)OCC(=O)c2ccc(Br)s2)c(OC)c1`, the cell number change was 32.9%. Besides, the half-maximal activity concentration (AC50) under setting [2] is 4110 nM [rising, partial curve, poor fit]. Moreover, the AC50 under setting [1] was 2910 nM [rising, full curve].
